This note sets out measurements from paper PMC7819943, “Rice protein-binding microarrays: a tool to detect cis-acting elements near promoter regions in rice”.

Chains of the proteins cited; added tags and fusions are not shown.
UniProt Q0JBA9, entry or part of it: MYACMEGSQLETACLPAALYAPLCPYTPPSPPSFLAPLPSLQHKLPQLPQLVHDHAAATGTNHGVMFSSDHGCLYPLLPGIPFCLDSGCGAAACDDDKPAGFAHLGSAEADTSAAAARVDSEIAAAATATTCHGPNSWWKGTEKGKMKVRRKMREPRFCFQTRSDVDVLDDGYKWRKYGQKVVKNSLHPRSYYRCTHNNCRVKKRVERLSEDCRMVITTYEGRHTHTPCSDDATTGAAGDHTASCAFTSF

Some of the results follow.

The experiment concerns the target OsWRKY34 (Oryza sativa, UniProt Q0JBA9 1-250). The experiment is described as follows: protein-binding microarray (RPBM); PBS, 2% BSA, 51.3 ng/ul salmon testes DNA, 50 uM zinc acetate, 200 nM TF, 25 C, 1 h; high values mean tight binding. To be noted: protein: recombinant; tags: N-terminal polyhistidine and DsRed monomer fusion (pET32a); label: CyDye5-dUTP incorporated in the synthesized complementary strand; 3' TTTTT single-stranded linker to array surface; dsDNA, one strand shown. The gist of the method: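 Binding signal is defined as the fluorescence intensity of each feature in arbitrary units, read on an Axon 4000B scanner. Transcription factors with N-terminal polyhistidine and DsRed fusions came from E. coli BL21-CodonPlus and were purified on Ni–NTA. They were incubated at 200 nM for 1 h at 25 °C on a custom Agilent array that had been made double-stranded with Cy5-dUTP, with 50 µM zinc acetate present, and the array was washed.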
Turning to “CGTCCTTGCCCTGGCCTTTGCGTGGCTCTTCACTTTCAGACGGAGTCACCTAGTGCAG”, the binding signal is 11800 fluorescence intensity (a.u.).
With “CGTTCCACCGCCGCGCCTCTTCCCCGCCCCGATCGGCTGCCGGAGTCACCTAGTGCAG”, the binding signal was 8810 fluorescence intensity (a.u.).
Turning to “CTAAGTTTTGTTCATCGTGTTTTGGAAGCATTTGTTGATTCGGAGTCACCTAGTGCAG”, the binding signal was 8920 fluorescence intensity (a.u.).
“CTTCTGCTTCTGGTTCTGGTTCGCCTTCCTAGTTCCTACCCGGAGTCACCTAGTGCAG”: the binding signal was 8330 fluorescence intensity (a.u.).
With “TGGTAACTGTCTGCACTACGATCTCTTAGTTCTGCCATCACGGAGTCACCTAGTGCAG” the figure was 8080 fluorescence intensity (a.u.).
Consider “ACAGTTGAAATTTGAAGTACGCTGTGTTAGTAGTATAAGTCGGAGTCACCTAGTGCAG”, for which the binding signal is 8360 fluorescence intensity (a.u.).
To “TGTTCAGTTCATCATGCCTATTCATTTTGCTAACATTTGACGGAGTCACCTAGTGCAG” belongs 12700 fluorescence intensity (a.u.).
As to “TGCGATTTCAGGCTGCCGGTTGGCCAATTTACTAATTAAACGGAGTCACCTAGTGCAG”, the binding signal was 9150 fluorescence intensity (a.u.).
“ATATTTGACACCGTTGACTTTTTAGCACATGTTTGACTGTCGGAGTCACCTAGTGCAG”: the binding signal is 33000 fluorescence intensity (a.u.).
To “CTGCCTCACCCTAGCTTAGTACTTGCAACTTTGCTTTGCTCGGAGTCACCTAGTGCAG” belongs 8240 fluorescence intensity (a.u.); to “ATGTCTTTGTGCTTTTTTTTGTTAGGAAAAAATCTTCTTTCGGAGTCACCTAGTGCAG”, 9400 fluorescence intensity (a.u.).
Take “ACTTCATTCTCCCGTCTATAAATCCATCCACAGCTAGCCACGGAGTCACCTAGTGCAG”: the binding signal is 10100 fluorescence intensity (a.u.).
Turning to “ACCGATGACTTTTGGCAAAACTTACAGTAAAACTGCTTATCGGAGTCACCTAGTGCAG”, the binding signal was 8850 fluorescence intensity (a.u.).
In the case of “CATTGTGTGGTCCACTCAAGCACGTTTCCATCTCCCTTGACGGAGTCACCTAGTGCAG”, the binding signal was 9610 fluorescence intensity (a.u.).
With “GAGCCTGCTTTGTTTTCTTAATTTGTCATGATCTTTCATCCGGAGTCACCTAGTGCAG” the figure was 10500 fluorescence intensity (a.u.); with “TCGCTCGCTCGCCGTCCGCCGCCGCCGCCTTGCTCAGTTGCGGAGTCACCTAGTGCAG”, 8220 fluorescence intensity (a.u.); with “TTTATTTCCCTGTCGCCGTAGTCCCCTTTCCACCAAGTCACGGAGTCACCTAGTGCAG”, 8320 fluorescence intensity (a.u.).
Regarding “CATCACCTTCCCCATCGACCGTCGTGCATCGTGCCCCGTCCGGAGTCACCTAGTGCAG”, the binding signal was 10000 fluorescence intensity (a.u.).
With “CATCCTATAAATCACTTGAAACTTGACATTCCACTTTATACGGAGTCACCTAGTGCAG”, the binding signal was 8100 fluorescence intensity (a.u.).
As for “TCTCACTGTGCTCGGCCTTGGCCACCATCGTCATCCATTCCGGAGTCACCTAGTGCAG”, the binding signal is 10100 fluorescence intensity (a.u.).
Consider “TTCCTTGTTCTTCTTGCCTACTACTAATTCTTCCGATCTGCGGAGTCACCTAGTGCAG”, for which the binding signal was 9210 fluorescence intensity (a.u.).
With “GATCCTTTTGTGTTGACATATCATGGACAATCTTTTTCACCGGAGTCACCTAGTGCAG” the figure was 8100 fluorescence intensity (a.u.).
In the case of “AGCTTCTAACTTCTAGCTTATTTTCTCAATTATACAATTTCGGAGTCACCTAGTGCAG”, the binding signal was 8310 fluorescence intensity (a.u.).
